{"source": "paper PMC4621994", "about": "(British Journal of Pharmacology, 2015)", "target": "native GABAA receptors in hippocampal neurons", "experiment": "GABA-evoked currents in cultured hippocampal neurons, perforated patch", "assay_type": "cell-based, rat", "conditions": "read-out: GABA EC50, solvent, Hippocampus neurons", "note": "Where two headings read alike, the source gives them in different places.", "data": [{"smiles": "NCCCC(=O)O", "note": "[GABA]", "values": [{"measurement": "EC50", "setting": "5 mM penicillin present, solvent", "value": "1.8 ± 0.2", "unit": "µM"}, {"measurement": "EC50", "setting": "solvent (0.1% DMSO)", "value": "9.4 ± 1", "unit": "µM"}]}]}
